Assay results reported in article PMC12645055.
Results are given in words; binding and its absence hold for the method and conditions named. Binding seen in cells or lysates may run through a third protein. Some binding calls cover weakened binding; strength is not graded here.

The chains behind the UniProt entries cited, without tags or fusion partners.
UniProt P50552: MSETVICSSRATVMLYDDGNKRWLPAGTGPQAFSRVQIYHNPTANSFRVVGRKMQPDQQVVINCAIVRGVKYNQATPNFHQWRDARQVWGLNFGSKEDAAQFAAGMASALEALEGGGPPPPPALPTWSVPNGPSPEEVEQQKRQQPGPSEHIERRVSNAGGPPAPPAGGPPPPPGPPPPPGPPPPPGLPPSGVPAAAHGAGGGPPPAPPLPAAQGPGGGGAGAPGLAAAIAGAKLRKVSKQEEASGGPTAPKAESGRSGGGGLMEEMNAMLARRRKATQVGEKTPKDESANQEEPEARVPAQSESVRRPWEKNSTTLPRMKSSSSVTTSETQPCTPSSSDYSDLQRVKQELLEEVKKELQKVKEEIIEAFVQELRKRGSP
UniProt O15105: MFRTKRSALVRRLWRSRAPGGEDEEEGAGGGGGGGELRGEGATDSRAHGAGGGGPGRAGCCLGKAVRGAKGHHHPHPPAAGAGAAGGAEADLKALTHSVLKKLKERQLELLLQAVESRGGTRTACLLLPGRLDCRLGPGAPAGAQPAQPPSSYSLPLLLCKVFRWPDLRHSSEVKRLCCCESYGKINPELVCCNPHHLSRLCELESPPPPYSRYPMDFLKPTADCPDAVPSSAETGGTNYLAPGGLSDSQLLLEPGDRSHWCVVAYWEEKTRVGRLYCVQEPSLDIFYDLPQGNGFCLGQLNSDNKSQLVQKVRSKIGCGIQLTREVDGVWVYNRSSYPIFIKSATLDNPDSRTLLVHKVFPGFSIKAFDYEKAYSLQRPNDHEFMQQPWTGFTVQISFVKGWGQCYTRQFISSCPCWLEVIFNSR

Key:
[1] = biological target: VASP (human (endogenous in PANC-1 and AsPC-1)) (UniProt P50552); assay: co-IP; PANC-1 and AsPC-1 cells; antibodies and direction not told; for VASP-SMAD7 also after knock-down or overexpression of EMP1
[2] = biological target: T1, EMP1 (UniProt P54849); assay: as above
T1 sequence: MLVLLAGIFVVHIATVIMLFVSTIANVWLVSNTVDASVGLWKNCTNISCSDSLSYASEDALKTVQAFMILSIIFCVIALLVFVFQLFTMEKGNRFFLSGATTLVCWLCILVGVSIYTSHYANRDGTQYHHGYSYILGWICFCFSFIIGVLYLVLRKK

binding [1] | binding [2] | Substance
binds |  | SMAD7 (from UniProt O15105 1-426)
 | binds | VASP (from UniProt P50552 1-380)
